# Experimental data as given in PubChem BioAssay AID1259415 (National Center for Advancing Translational Sciences (NCATS), 2018).
# About 18,000 (4.4%) of roughly 410,000 compounds were called active. Inconclusive results, whose numbers are uncertain, are shown with a selection of clear calls. No stated cut-off is given here; in the data, active means activity change below about -60%; inconclusive means no clear call, values can overlap the other calls; inactive means above about -39%.
# Assay: qHTS Assay for inhibitors of the human cytomegalovirus (HCMV)
# Conditions: HFF cells, HCMV-luciferase reporter, 72 h; at 57.5 µM; hits give low values
# Summary of the method: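 After 16 h attachment at 37C, HFF cells received test compound and HCMV-luciferase (1 PFU/cell); reporter luminescence read 72 h later, data normalized against buffer-only and known inhibitor Salinomycin.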
# On the % scale 0 is the no-effect control and ±100 the full control effect.
row,SMILES,"activity change, negative = inhibition"
1,CCc1nnc(SCC(=O)Nc2ccccc2)n1CC1CCCO1 (stereo unspecified),inconclusive: -49.2%
2,CC1=C(/C=C/C(C)=N\NC(=O)c2ccncc2)C(C)(C)CCC1,inconclusive: -58.4%
3,COCCNC(=O)C(c1ccc(Cl)cc1)N(Cc1ccco1)C(=O)CCC(=O)Nc1ccccn1 (stereo unspecified),inactive: -26.1%
4,Cc1cn2c(=O)cc(COC(=O)c3cccc(NC(=O)COc4ccccc4C)c3)nc2s1,inconclusive: -43.7%
5,Cc1nc(C)c(-c2ccc(SCc3ccc([N+](=O)[O-])cc3)nn2)s1,inconclusive: -56.4%
6,COc1ccc(-n2c(-c3ccc(C)cc3)cc3c2CC(C)(C)CC3=O)c(OC)c1,inconclusive: -50.5%
7,Cc1ccc(Cc2nc3ccccc3nc2SCC(=O)N2CCCc3ccccc32)cc1,inactive: 79.8%
8,Cc1onc(-c2ccccc2)c1C(=O)N=C(N)c1ccc(C(F)(F)F)cc1,inactive: -3.14%
9,CC1Cc2ccccc2N1C(=O)CSc1nnc2n1C(C)(C)Cc1ccccc1-2 (stereo unspecified),inconclusive: -59.3%
10,Cc1ccc(S(=O)(=O)NC(CC(C)C)C(=O)N2CCC(C)CC2)cc1 (stereo unspecified),inconclusive: -41.9%
11,COc1ccc2cc3cc(C(=O)N4CCN(Cc5ccc6c(c5)OCO6)CC4)oc3nc2c1,inactive: -39%
12,O=C(Nc1ccc(OCC(F)(F)C(F)F)c(C(F)(F)F)c1)c1ccc(Cl)cc1,active: -94.9%
13,Cc1cccc(Cn2cnc3c(NS(C)(=O)=O)c(C)c(C)cc32)c1,inactive: 30.1%
14,CN1C(=O)/C(=C\N2CCc3ccccc32)C(=O)NC1=S,inactive: 80%
15,C=CCn1c(N/N=C/c2ccc(O)cc2)nc2ccccc2c1=O,active: -65%
16,CC(=O)c1c(C)[nH]c(C(=O)OCC(=O)Nc2ccc(Cl)cc2[N+](=O)[O-])c1C,inconclusive: -57.4%
17,CN(C(=O)COC(=O)c1ccc(S(=O)(=O)N2CCOCC2)cc1)C1CCCCC1,inconclusive: -57%
18,CCN(CC)S(=O)(=O)c1ccc(C)c(NC(=O)CN2CCN(Cc3ccccc3)CC2)c1,inactive: -33.2%
19,CCc1ccc(NC(=O)C(C)n2nc(C)c([N+](=O)[O-])c2C)cc1 (stereo unspecified),inconclusive: -43.3%
20,COc1ccc(CCNC(=O)c2ccc3c(c2)N(Cc2ccccc2F)C(=O)c2ccccc2S3=O)cc1OC (stereo unspecified),inconclusive: -44.5%
21,CS(=O)(=O)c1ccc(C(=O)OCC(=O)NCc2cccs2)cc1[N+](=O)[O-],inconclusive: -57%

row,SMILES,"activity change, negative = inhibition"
1,N#Cc1ccccc1S(=O)(=O)N1CCN(C(=O)c2cc(-c3ccccc3)nn2-c2ccccc2)CC1,inconclusive: -48.2%
2,O=C(Nc1ccc2nn(-c3ccccc3)nc2c1)c1ccc(Br)o1,active: -64.8%
3,COc1ccc(CCNC(=O)Cn2nnc(-c3ccc(N(C)C)cc3)n2)cc1OC,inactive: -1.88%
4,CC(/C=N/NC(=O)c1cc(-c2cccnc2)nc2c1c(C)nn2-c1ccccc1)=C\c1ccccc1,inactive: 10.7%
5,O=c1[nH]nc(SCCS(=O)(=O)c2ccc(F)cc2)n1-c1ccc2c(c1)OCCO2,active: -80.7%
6,Cc1ccc(N2CCN(C(=O)c3cc(S(=O)(=O)N4CCCCC4)c[nH]3)CC2)c(C)c1,inconclusive: -42.6%
7,COc1ccccc1CNc1cc(CSc2ccc(Cl)cc2)nc(C)n1,inactive: 14.2%
8,CC(C)CNC(=O)c1cccc(NC(=O)c2ccc(NC(=O)c3ccco3)cc2)c1,inconclusive: -44.9%
9,C=CCn1c2ccccc2c2nnc(SCc3[nH]c(=O)[nH]c3C(=O)CCCCC(=O)OCC)nc21,inconclusive: -41%
10,Cc1ccccc1/C=C/c1cccc[n+]1C,inconclusive: -50.8%
11,C=CCN1[C@@H](C)[C@H](c2ccccc2)Oc2cccc(N3CCCC(C)C3)c2S1(=O)=O (stereo partly specified),inconclusive: -49.6%
12,Cc1cc(NS(=O)(=O)c2ccc(NC(=O)/C=C/c3ccco3)cc2)nc(C)n1,inactive: 2.06%
13,O=C(Cn1sc2ccccc2c1=O)Nc1ccccc1,inconclusive: -52.9%
14,O=[N+]([O-])c1ccc(-c2cn(-c3ccccc3F)c(=S)[nH]2)cc1,inconclusive: -47.9%
15,O=C(Nc1ccc(Cc2ccncc2)cc1)C1CCC(N2C(=O)C3C4C=CC(C5CC45)C3C2=O)CC1 (stereo unspecified),active: -84.9%
16,CCOC(=O)C(NC(=O)CC)(Nc1sc(C)c(CC)c1C#N)C(F)(F)F (stereo unspecified),inconclusive: -48.2%
17,COc1cc(OCc2ccccc2)c(C(=O)/C=C/c2ccc3c(c2)OCO3)c(OC)c1OC,inconclusive: -50.5%
18,Cc1ccc2c(c1)nnn2C1CCN(CC(=O)N2c3ccccc3CC2C)CC1 (stereo unspecified),active: -76.1%
19,Cc1ccc(NC(=O)CCNS(=O)(=O)c2cc(Br)cnc2N)cc1Cl,inconclusive: -46.6%
20,O=C(c1cc2cc(Cl)ccc2[nH]1)N1CCc2ccccc2C1,inactive: 11.5%
21,Cc1ccc(NC(=O)CN2CCC(NC(=O)C3CCCCC3)CC2)c(Br)c1,inconclusive: -40.9%

row,SMILES,"activity change, negative = inhibition"
1,C[C@]12CCC(=O)C[C@@H]1CC[C@@H]1[C@@H]2CC[C@]2(C)C=CC[C@@H]12,inconclusive: -44.6%
2,Cc1ccc2c(c1C)NC(=O)CC2c1ccc(Cl)cc1Cl (stereo unspecified),inactive: -14.1%
3,CC(=O)c1ccc(C(=O)N2CCc3c([nH]c4ccccc34)C2c2cccc(C)n2)s1 (stereo unspecified),inactive: 37.9%
4,Nc1ccc2nc(COc3ccccc3)[nH]c2c1,inactive: -5.98%
5,O=C(CSC1=NS(=O)(=O)c2cc(Cl)ccc2N1)c1ccc(Cl)cc1,inactive: -15%
6,Cc1ccc(CS(=O)(=O)c2ncc(Cl)c(C(=O)Nc3nnc(C)s3)n2)cc1,active: -111%
7,COc1cc(Br)c(C(C)NC(=O)c2cccc(Br)c2)cc1OC (stereo unspecified),inconclusive: -55.5%
8,O=C1CCc2cc(S(=O)(=O)N3CCN(c4ccccc4F)CC3)ccc2N1,inconclusive: -50.3%
9,Cn1c(C(=O)Nc2ccc3c(c2)OCCO3)cc2c(=O)n(C)c3ccccc3c21,inconclusive: -51.8%
10,COc1ccc(N2CCN(C(=O)c3ccc(Oc4ccc(C(F)(F)F)cn4)cc3)CC2)cc1,inconclusive: -54.5%
11,Cn1c(Oc2ccccc2NCc2cc(Br)ccc2O)cc(=O)n(C)c1=O,inconclusive: -49.4%
12,COc1ccc(-c2noc(=O)n2Cc2ccccc2Cl)cc1,inconclusive: -48.9%
13,O=S(=O)(NCCSc1nnc(-c2ccco2)n1-c1ccccc1)c1ccccc1,inconclusive: -41.3%
14,O=C(Nc1ccncc1)c1cc(S(=O)(=O)N2CCCC2)ccc1Cl,inactive: 21.2%
15,O=C(CCNS(=O)(=O)c1ccc(OC(F)(F)F)cc1)N1CCN(S(=O)(=O)c2cccc(F)c2)CC1,inconclusive: -40.3%
16,CC1(C)CC2CC(C)(CN2S(=O)(=O)c2ccc(C(=O)Nc3cccc(S(=O)(=O)N4CCOCC4)c3)cc2)C1 (stereo unspecified),active: -91.5%
17,Cc1c(NC(=O)COC(=O)C2(c3ccccc3F)CCCC2)c(=O)n(-c2ccccc2)n1C,inconclusive: -44.8%
18,O=C(NC(Cc1c[nH]c2ccccc12)C(=O)O)/C(=C\c1ccccc1)NC(=O)c1ccccc1 (stereo unspecified),inactive: -12.2%
19,O=C(Nc1ccc(OC(F)F)cc1)c1cc[n+]([O-])cc1,inactive: 14.2%
20,CCc1ccc(-c2nc(CS(=O)CC(=O)NCc3ccccc3)c(C)o2)cc1 (stereo unspecified),inconclusive: -50.1%
21,C=CCn1c(SCc2cc(=O)n3cc(C)ccc3n2)nnc1-c1ccc(F)cc1,inconclusive: -53.7%

row,SMILES,"activity change, negative = inhibition"
1,C=Cn1cc[n+](CC(=O)c2cc(C(C)(C)C)c(O)c(C(C)(C)C)c2)c1,inconclusive: -50.2%
2,CCCN(CC(=O)Nc1ccccc1C)C(=O)Cc1c(C)nc2ccccc2c1C,inactive: -32.4%
3,CN(C)[C@@H]1C(=O)C(C(N)=O)=C(O)[C@@]2(O)C(=O)C3=C(O)c4c(O)cccc4[C@@](C)(O)[C@H]3[C@H](O)[C@@H]12,inconclusive: -42.3%
4,Cc1c2cnn(-c3ccccc3)c(=O)c2c(C)n1CCCC(=O)N1CCN(c2ncccn2)CC1,inactive: -5.1%
5,CCOc1ccc(C2=Nc3ccccc3C(c3ccc(N4CCOCC4)cc3)=NN2)cc1,inconclusive: -40.4%
6,CC1=CS/C(=C(/C#N)C(=O)NCc2ccco2)N1c1ccccc1,inconclusive: -55.6%
7,NC(=S)NN=C(c1ccc(F)cc1)C1CC1,inactive: -20%
8,COc1cccc(-c2cc(C(=O)Nc3ccn(Cc4ccc(C)cc4)n3)no2)c1,inconclusive: -46.5%
9,O=c1c2ccccc2nc(SCc2cn3ccsc3n2)n1-c1ccccc1,inconclusive: -48.7%
10,Cc1ccc(S(=O)(=O)N2CCOCC2)cc1C(=O)Nc1ccncc1,inactive: 11.2%
11,O=C(NCC1CCCCC1)c1csc([C@@H]2O[C@H](CO)[C@H](O)[C@H](O)[C@H]2O)n1,inactive: -27.7%
12,CC(C)NC(=O)c1ccccc1NC(=O)C(C)Oc1ccccc1 (stereo unspecified),inconclusive: -40.2%
13,C=CCNC(=S)Nc1ccc(OC(F)F)c(Cl)c1,inconclusive: -59.8%
14,CN(C(=O)CNC(=O)OCc1ccccc1)c1ccc(Br)cc1C(=O)c1ccccc1Cl,inconclusive: -48.5%
15,Cc1ccc(Cl)cc1NC(=O)CC1NCCNC1=O (stereo unspecified),inactive: -4.85%
16,O=C(COC(=O)C1CCN(S(=O)(=O)c2ccc3c(c2)OCCO3)CC1)Nc1cccc2ccccc12,inconclusive: -52.1%
17,CC(C)Cn1c2c(c(=O)[nH]c1=O)C(C(F)(F)F)(C(F)(F)F)N=C(CCC1CCCCC1)N2,inconclusive: -56.9%
18,O=C1CN(C(=O)COc2cccc(F)c2)c2ccccc2N1,inconclusive: -50%

# By substructure: the compounds so far containing a CF3 group.
row,SMILES,"activity change, negative = inhibition"
8,Cc1onc(-c2ccccc2)c1C(=O)N=C(N)c1ccc(C(F)(F)F)cc1,inactive: -3.14%
12,O=C(Nc1ccc(OCC(F)(F)C(F)F)c(C(F)(F)F)c1)c1ccc(Cl)cc1,active: -94.9%
16,CCOC(=O)C(NC(=O)CC)(Nc1sc(C)c(CC)c1C#N)C(F)(F)F (stereo unspecified),inconclusive: -48.2%
10,COc1ccc(N2CCN(C(=O)c3ccc(Oc4ccc(C(F)(F)F)cn4)cc3)CC2)cc1,inconclusive: -54.5%
15,O=C(CCNS(=O)(=O)c1ccc(OC(F)(F)F)cc1)N1CCN(S(=O)(=O)c2cccc(F)c2)CC1,inconclusive: -40.3%
17,CC(C)Cn1c2c(c(=O)[nH]c1=O)C(C(F)(F)F)(C(F)(F)F)N=C(CCC1CCCCC1)N2,inconclusive: -56.9%
